Results taken from patent publication US6583118B1, “Chondroprotective agents” (Kureha Chemical Industry Co., Ltd., priority 1993, dated 2003).
At least one structure is not confirmed: it was looked up by name or label, or the drawing left a doubt.

Tested on: chondrocyte culture (derived from cartilage of rabbit shoulder and knee joints)
Assay: Effect of test compounds on proteoglycan depletion in chondrocyte culture (PMA-induced, GAG content)
Format: cell-based, rabbit (New Zealand white Rabbits)
Settings: result in words
Procedure: The cartilages were sterilely extracted from the shoulder and knee joints of rabbits (New Zealand white Rabbits) (body weight of 1 to 1.5 kg). The cartilages were thoroughly washed with PBS (−) (free of Ca^2+, Mg^2+), Hanks' solution and 0.1% EDTA-PBS (−), and then cut into small segments (1 mm×1 mm×1 mm). After PBS (−) containing 0.1% EDTA was added, the segments were allowed to stand in an incubator of 37° C. for 30 minutes. Then, the segments were treated with a trypsin solution (0.25%) at 37° C. for one hour to remove the connective tissue adhered to the cartilage. […]
Proteoglycan depletion was determined by the measurement of the glycosaminoglycan (major constituent of proteoglycan, hereinafter referred to as GAG) content following digestion of the chondrocyte matrix with papain.
After 2 days, the supernatant of the chondrocyte culture was removed. […] The content of the GAG in the treated papaine solution was determined by the 1,9-dimethylmethylene blue method (refer to R. W. Farndale, Biochim. Biophys. Acta., Vol. 883, pp. 173 to 177, 1986). The GAG content in the chondrocyte matrix of the control test wherein the proteoglycan depleting agent was not added was shown as “100”, and the relative amount of the GAG of each experiment except the control test was calculated by following formula: […]

SMILES: COc1ccc2c(c1)c(CC(=O)O)c(C)n2C(=O)c1ccc(Cl)cc1 [indometacin, Indometacin, reference compound]
- function to inhibit or suppress the proteoglycan depletion (loss of GAG content): caused a significant exacerbation on the proteoglycan depletion
